Results are given in words; binding and its absence hold for the method and conditions named. Some entries that bind do so weakly or less than the wild type.
What was measured:
[1] = molecular target: T1, native collectin-10 (CL-10) from human plasma (human (endogenous in plasma)) (UniProt Q9Y6Z7); assay: ELISA; sandwich ELISA on EDTA plasma 1:40 in sample buffer (TBS-Tw-EDTA, 0.1% bovine serum): mAb anti-CL-10 (HM2356) coated as capture, biotinylated anti-CL-11 Hyb-15 as detection; healthy donors and SIRS patients
T1 sequence: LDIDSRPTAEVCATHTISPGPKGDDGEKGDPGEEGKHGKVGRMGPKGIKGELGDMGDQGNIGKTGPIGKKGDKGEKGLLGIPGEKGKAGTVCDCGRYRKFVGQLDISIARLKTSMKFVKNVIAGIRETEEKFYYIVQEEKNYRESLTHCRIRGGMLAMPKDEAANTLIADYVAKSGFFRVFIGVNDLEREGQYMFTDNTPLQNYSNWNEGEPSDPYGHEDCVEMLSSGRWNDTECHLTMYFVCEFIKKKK

Protein sequences, listed by entry. Tags and fused reporters are not part of them. Lines headed by an entry give the natural chain unless they say otherwise; changes in a name come on top. Residues count along the entry.
UniProt P02769, residues 25-607: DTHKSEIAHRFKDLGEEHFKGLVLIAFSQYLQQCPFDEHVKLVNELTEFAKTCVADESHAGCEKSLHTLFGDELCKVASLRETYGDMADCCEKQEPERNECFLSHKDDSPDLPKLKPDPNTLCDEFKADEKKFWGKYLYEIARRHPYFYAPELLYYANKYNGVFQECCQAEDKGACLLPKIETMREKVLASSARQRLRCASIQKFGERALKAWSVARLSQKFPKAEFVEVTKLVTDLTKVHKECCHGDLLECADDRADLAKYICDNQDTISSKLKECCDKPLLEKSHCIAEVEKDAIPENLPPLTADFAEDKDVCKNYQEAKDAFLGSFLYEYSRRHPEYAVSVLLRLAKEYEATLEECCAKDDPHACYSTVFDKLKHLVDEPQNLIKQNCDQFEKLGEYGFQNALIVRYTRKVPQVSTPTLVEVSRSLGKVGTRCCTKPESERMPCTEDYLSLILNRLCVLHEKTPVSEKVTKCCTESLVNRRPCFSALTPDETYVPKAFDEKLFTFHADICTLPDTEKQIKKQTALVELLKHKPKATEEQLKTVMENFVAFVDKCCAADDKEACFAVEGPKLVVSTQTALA
UniProt Q9BWP8, residues 26-271: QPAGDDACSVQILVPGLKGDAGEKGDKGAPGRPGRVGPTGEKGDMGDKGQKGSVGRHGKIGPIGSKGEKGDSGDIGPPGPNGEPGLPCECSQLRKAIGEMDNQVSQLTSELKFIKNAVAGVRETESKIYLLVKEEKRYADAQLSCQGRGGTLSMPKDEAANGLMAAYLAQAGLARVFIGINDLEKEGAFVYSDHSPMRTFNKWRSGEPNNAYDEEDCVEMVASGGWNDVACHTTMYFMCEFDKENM

[2] = molecular target: T1, native collectin-10 (CL-10) from human plasma (human (endogenous in plasma)); assay: SEC; Superdex 200 HR 10/30, 0.5 ml/min, RT, PBS 2 mM EDTA; pooled blood sample; CL-11 and CL-10/11 in the fractions by sandwich ELISA, confirmed by western blot after TCA precipitation
[3] = molecular target: BSA (bovine (from the name BSA)) (UniProt P02769); assay: ELISA; BSA coated in two-fold dilutions from 10 μg/ml in PBS; rCL-11 1 μg/ml in TBS-Tw-Ca, TBS-Tw-EDTA or TBS-Tw-Mg-EGTA, 2 h RT; detection with Hyb-15 and streptavidin-HRP

Q: What does the source list for “native collectin-11 (CL-11) from human serum and plasma (from UniProt Q9BWP8 26-271)”?
A: binding [1]: binds; binding [2]: binds

Q: How did the binding [3] turn out when “recombinant CL-11 (rCL-11), in-house, produced in Flp-In CHO cells (from UniProt Q9BWP8-1 26-271)” was run?
A: Its binding is “no binding (tested: rCL-11 1 μg/ml; BSA coated from 10 μg/ml)”.

Source: article PMC6172411, “Development of a Quantitative Assay for the Characterization of Human Collectin-11 (CL-11, CL-K1)” (Frontiers in Immunology, 2018)
